Source: PubChem BioAssay AID743121 (NCATS, 2013)
Shown is an unselected part of about 26,000 reagents. 167 of them (0.63%) were called active. 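Calls are per gene from RSA p-values that are not deposited; an individual active-marked siRNA can sensitise only weakly.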 The numbers tell different reagents against one gene apart. Further read-outs or replicates are left out here.

- Assay: 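Genes whose silencing strengthens cell killing by camptothecin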 (primary screen)
- Cells: MDA-MB-231 cells, a human breast cancer line
- Reagents: single siRNA against human genes, 20 nM siRNA (0.8 pmol per well)
- Duration: 120 h (drug added 48 h after transfection, read 72 h later)
- Challenge: camptothecin 20 nM (about EC30) for 72 h; vehicle 0.1% DMSO in parallel plates
- Measured: 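Cell viability by ATP luminescence (CellTiter-Glo) as % of non-targeting siRNA wells, and the log2 ratio of viability without drug over viability with camptothecin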
- Direction: log2 vehicle/camptothecin viability: higher = stronger sensitisation to camptothecin; viability with camptothecin: higher = more viable cells
- Units: viability with camptothecin in % of control
- Rule for the call: 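Each gene scored by redundant siRNA activity (RSA) over its individual siRNA ratios; a gene is called active at p < 0.001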

MPP4 #1 | log2 vehicle/camptothecin viability = -0.0481; viability with camptothecin = 45.4; Call = inactive
MPP4 #2 | log2 vehicle/camptothecin viability = 0.221; viability with camptothecin = 106; Call = inactive
MPP4 #3 | log2 vehicle/camptothecin viability = -0.103; viability with camptothecin = 49.2; Call = inactive
DNAAF3 #1 | log2 vehicle/camptothecin viability = -0.233; viability with camptothecin = 37.6; Call = inactive
DNAAF3 #2 | log2 vehicle/camptothecin viability = 0.2; viability with camptothecin = 26.5; Call = inactive
DNAAF3 #3 | log2 vehicle/camptothecin viability = -0.309; viability with camptothecin = 81.4; Call = inactive
DNAAF3 #4 | log2 vehicle/camptothecin viability = 0.0795; viability with camptothecin = 89.4; Call = inactive
RAB8B #1 | log2 vehicle/camptothecin viability = -0.477; viability with camptothecin = 91.8; Call = inactive
RAB8B #2 | log2 vehicle/camptothecin viability = -0.268; viability with camptothecin = 73.3; Call = inactive
RAB8B #3 | log2 vehicle/camptothecin viability = -0.597; viability with camptothecin = 66.1; Call = inactive
RAB8B #4 | log2 vehicle/camptothecin viability = -0.0638; viability with camptothecin = 80; Call = inactive
KCNH8 #1 | log2 vehicle/camptothecin viability = -0.277; viability with camptothecin = 74.4; Call = inactive
KCNH8 #2 | log2 vehicle/camptothecin viability = -0.279; viability with camptothecin = 77.7; Call = inactive
KCNH8 #3 | log2 vehicle/camptothecin viability = -0.257; viability with camptothecin = 111; Call = inactive
KCNH8 #4 | log2 vehicle/camptothecin viability = -0.15; viability with camptothecin = 101; Call = inactive
SLC25A6 #1 | log2 vehicle/camptothecin viability = -0.545; viability with camptothecin = 100; Call = inactive
SLC25A6 #2 | log2 vehicle/camptothecin viability = 0.208; viability with camptothecin = 79; Call = inactive
SLC25A6 #3 | log2 vehicle/camptothecin viability = -0.577; viability with camptothecin = 98.2; Call = inactive
SLC25A6 #4 | log2 vehicle/camptothecin viability = 0.229; viability with camptothecin = 74.3; Call = inactive
YWHAB #1 | log2 vehicle/camptothecin viability = -0.315; viability with camptothecin = 83.7; Call = inactive
YWHAB #2 | log2 vehicle/camptothecin viability = -0.197; viability with camptothecin = 137; Call = inactive
YWHAB #3 | log2 vehicle/camptothecin viability = -0.0837; viability with camptothecin = 80.9; Call = inactive
YWHAB #4 | log2 vehicle/camptothecin viability = -0.331; viability with camptothecin = 75.6; Call = inactive
UBR7 #1 | log2 vehicle/camptothecin viability = 0.171; viability with camptothecin = 64.6; Call = inactive
UBR7 #2 | log2 vehicle/camptothecin viability = -0.194; viability with camptothecin = 87; Call = inactive
UBR7 #3 | log2 vehicle/camptothecin viability = -0.236; viability with camptothecin = 37.8; Call = inactive
LRRK1 #1 | log2 vehicle/camptothecin viability = -0.191; viability with camptothecin = 100; Call = inactive
LRRK1 #2 | log2 vehicle/camptothecin viability = -0.053; viability with camptothecin = 97.2; Call = inactive
LRRK1 #3 | log2 vehicle/camptothecin viability = -0.596; viability with camptothecin = 106; Call = inactive
LRRK1 #4 | log2 vehicle/camptothecin viability = -0.217; viability with camptothecin = 138; Call = inactive
DHRS9 #1 | log2 vehicle/camptothecin viability = -0.483; viability with camptothecin = 105; Call = inactive
DHRS9 #2 | log2 vehicle/camptothecin viability = -0.17; viability with camptothecin = 102; Call = inactive
DHRS9 #3 | log2 vehicle/camptothecin viability = 0.149; viability with camptothecin = 65.2; Call = inactive
NEK6 #1 | log2 vehicle/camptothecin viability = 0.24; viability with camptothecin = 82; Call = inactive
NEK6 #2 | log2 vehicle/camptothecin viability = -0.114; viability with camptothecin = 106; Call = inactive
NEK6 #3 | log2 vehicle/camptothecin viability = -0.166; viability with camptothecin = 90.7; Call = inactive
NEK6 #4 | log2 vehicle/camptothecin viability = -0.0314; viability with camptothecin = 53.2; Call = inactive
OR5L2 #1 | log2 vehicle/camptothecin viability = -0.655; viability with camptothecin = 54.3; Call = inactive
OR5L2 #2 | log2 vehicle/camptothecin viability = 0.258; viability with camptothecin = 44; Call = inactive
OR5L2 #3 | log2 vehicle/camptothecin viability = 0.0218; viability with camptothecin = 75.8; Call = inactive
OR5L2 #4 | log2 vehicle/camptothecin viability = -0.04; viability with camptothecin = 81.9; Call = inactive
OR10A4 #1 | log2 vehicle/camptothecin viability = 0.376; viability with camptothecin = 42.1; Call = inactive
OR10A4 #2 | log2 vehicle/camptothecin viability = -0.152; viability with camptothecin = 63.9; Call = inactive
OR10A4 #3 | log2 vehicle/camptothecin viability = 0.65; viability with camptothecin = 33.4; Call = inactive
OR10A4 #4 | log2 vehicle/camptothecin viability = -0.165; viability with camptothecin = 58.8; Call = inactive

3 entries from above, set out differently:
| gene | reagent | log2 vehicle/camptothecin viability | viability with camptothecin | Call |
| --- | --- | --- | --- | --- |
| SLC25A6 | 4 | 0.229 | 74.3 | inactive |
| YWHAB | 1 | -0.315 | 83.7 | inactive |
| YWHAB | 2 | -0.197 | 137 | inactive |
